Reference: paper PMC11696715

By UniProt entry, the sequences of proteins in these tests, tags left out.
UniProt P63330: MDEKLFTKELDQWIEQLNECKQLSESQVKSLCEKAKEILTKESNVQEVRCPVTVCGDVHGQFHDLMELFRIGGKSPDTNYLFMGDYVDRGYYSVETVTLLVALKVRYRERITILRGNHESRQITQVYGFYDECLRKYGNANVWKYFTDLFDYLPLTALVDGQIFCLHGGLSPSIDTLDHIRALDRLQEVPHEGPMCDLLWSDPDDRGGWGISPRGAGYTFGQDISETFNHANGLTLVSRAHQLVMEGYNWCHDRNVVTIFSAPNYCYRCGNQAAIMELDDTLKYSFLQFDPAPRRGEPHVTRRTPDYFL

Biological target: T1, Flag-MYSM1 (UniProt Q69Z66)
T1 sequence: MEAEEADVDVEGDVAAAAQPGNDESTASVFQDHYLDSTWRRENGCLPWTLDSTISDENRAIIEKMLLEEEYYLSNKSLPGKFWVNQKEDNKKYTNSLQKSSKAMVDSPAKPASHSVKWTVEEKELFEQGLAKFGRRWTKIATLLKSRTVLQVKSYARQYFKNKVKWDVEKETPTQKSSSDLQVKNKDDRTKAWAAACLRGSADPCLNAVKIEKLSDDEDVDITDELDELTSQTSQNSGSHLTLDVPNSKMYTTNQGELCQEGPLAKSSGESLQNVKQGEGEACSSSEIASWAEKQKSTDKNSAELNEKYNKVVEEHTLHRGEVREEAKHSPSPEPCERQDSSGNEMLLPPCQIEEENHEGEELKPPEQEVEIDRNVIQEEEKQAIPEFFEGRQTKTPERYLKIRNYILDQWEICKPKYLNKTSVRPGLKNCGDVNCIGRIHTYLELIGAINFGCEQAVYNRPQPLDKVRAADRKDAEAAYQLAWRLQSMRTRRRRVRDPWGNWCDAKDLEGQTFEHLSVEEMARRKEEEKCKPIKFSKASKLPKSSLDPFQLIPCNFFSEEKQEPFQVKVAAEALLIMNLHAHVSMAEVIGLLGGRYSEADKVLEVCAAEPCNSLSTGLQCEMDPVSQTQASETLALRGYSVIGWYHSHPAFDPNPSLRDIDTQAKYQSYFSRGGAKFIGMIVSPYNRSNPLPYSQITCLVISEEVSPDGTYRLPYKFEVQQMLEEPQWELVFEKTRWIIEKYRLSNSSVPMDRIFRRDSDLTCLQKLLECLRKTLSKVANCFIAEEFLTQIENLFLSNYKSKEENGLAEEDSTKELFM
Test: affinity purification with mass spectrometry; chondrocytes transfected with Flag-Mysm1 plasmids; immunoprecipitated with an anti-Flag antibody overnight; LC-MS/MS (Q Exactive HF-X)

With “Ppp2ca (PP2Ac), catalytic subunit (C subunit) of protein phosphatase 2A (from UniProt P63330 1-309) (enzyme)” the binding was “binds”.

No constants are given. Whether binding was seen depends on the method and setting. In cells and extracts the contact can be indirect. A yes stands for co-enrichment or nearness to the bait. Other partners may have been found. Sequences can lack the tags named with a protein.
